PubChem BioAssay AID504808 – Drosophila RNAi Screening Center, 2011
Test: 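Fly genes required to hold E2F transcription in check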 (primary screen). Cell system: Drosophila S2 cells. Reagents: long dsRNA against Drosophila genes. Read-out: 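Firefly luciferase driven by E2F sites, normalised to Renilla luciferase on the same minimal promoter, measured by plate reader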. Reading the numbers: E2F firefly: higher = more E2F reporter activity; Renilla normaliser: higher = more normaliser reporter signal. Call rule: 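Called active if the normalised E2F reporter went up by over 50%; the cutoff is arbitrary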.
The deposit covers about 21,000 reagents; shown is an unselected part of those that have a named target and a result. Over the whole deposit, 18 (0.084%) got an active call. 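Raw counts without plate normalisation, one of two replicates; the ratio scores behind the calls were not deposited.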 A plus sign joins genes that one reagent is predicted to hit. The record does not give: the amount of reagent, the time to read-out.

gene knocked down	amplicon	E2F firefly, rep 1	Renilla normaliser, rep 1	Call
Df31	DRSC03738	74466	3624	inactive
DopEcR	DRSC08529	71695	3263	inactive
lectin-30A	DRSC02560	1.33e5	5056	inactive
Prosbeta2R2	DRSC12193	1.12e5	4898	inactive
CG12116	DRSC17812	1.14e5	6437	inactive
CG31954	DRSC00580	90378	3285	inactive
CG14325	DRSC14804	95265	5556	inactive
CG9590	DRSC16506	78226	3187	inactive
Poxn	DRSC05589	1.36e5	4621	inactive
Poxn	DRSC07512	1.52e5	4825	inactive
tum	DRSC07575	1.05e5	4186	inactive
CG9016	DRSC03127	1.42e5	5194	inactive
CG7966	DRSC16356	75782	3359	inactive
CG34292	DRSC13807	79587	2472	inactive
CG7430	DRSC10845	70882	3391	inactive
CG42674	DRSC10066	52881	3312	inactive
CG42674	DRSC10067	1.22e5	5651	inactive
CG42674	DRSC10811	1.30e5	6994	inactive
CG7650	DRSC10898	1.58e5	7884	inactive
Polr3F	DRSC15785	1.67e5	7427	inactive
Rab9D + Rab9Fa + Rab9E	DRSC19853	1.42e5	6150	inactive
trol	DRSC17714	79337	2276	inactive
trol	DRSC17718	85114	2404	inactive
trol	DRSC18613	1.24e5	6479	inactive
trol	DRSC18814	1.16e5	5694	inactive
Mip	DRSC10639	64128	3288	inactive
Ac13E	DRSC19325	1.58e5	6248	inactive
Nthl1	DRSC03183	97310	4467	inactive
CG2182	DRSC12308	62111	3495	inactive
axed	DRSC08833	1.33e5	4652	inactive
axed	DRSC10982	98377	3639	inactive
CG11127	DRSC06043	97535	3829	inactive
pita	DRSC04006	1.38e5	5668	inactive
pita	DRSC04435	70348	3286	inactive
AGBE	DRSC06861	3486	189	inactive
CG16813	DRSC02520	1.03e5	4216	inactive

6 of these entries in another layout:
| gene knocked down | amplicon | E2F firefly, rep 1 | Renilla normaliser, rep 1 | Call |
| --- | --- | --- | --- | --- |
| Mip | DRSC10639 | 64128 | 3288 | inactive |
| Ac13E | DRSC19325 | 1.58e5 | 6248 | inactive |
| Nthl1 | DRSC03183 | 97310 | 4467 | inactive |
| CG2182 | DRSC12308 | 62111 | 3495 | inactive |
| axed | DRSC08833 | 1.33e5 | 4652 | inactive |
| axed | DRSC10982 | 98377 | 3639 | inactive |

More results follow.
gene knocked down	amplicon	E2F firefly, rep 1	Renilla normaliser, rep 1	Call
CG40378 (retired record)	DRSC20958	84277	2409	inactive
MstProx + Mst84Da	DRSC12597	1.45e5	7030	inactive
CG3402	DRSC08567	83520	3505	inactive
CG4496	DRSC02753	1.52e5	4732	inactive
Doc1	DRSC11146	1.08e5	3764	inactive
CG14618	DRSC20631	1.35e5	5844	inactive
CG15756	DRSC19721	63864	4336	inactive
Girdin	DRSC08292	1.01e5	4650	inactive
CG4073	DRSC15542	1.45e5	7033	inactive
mtTFB2	DRSC15519	1.29e5	5891	inactive
SF2	DRSC16845	1.24e5	6825	inactive
cni	DRSC03512	94558	4065	inactive
CG30020	DRSC06252	44613	3001	inactive
CG30020	DRSC06730	1.25e5	4519	inactive
CG8191	DRSC20091	1.45e5	5851	inactive
snky	DRSC09838	1.17e5	5516	inactive
CAH7	DRSC15524	1.45e5	6323	inactive
CG15221	DRSC19659	53497	3933	inactive
goe	DRSC19345	1.29e5	5713	inactive
CG11313	DRSC14295	1.19e5	5856	inactive
mus201 + Chrac-14	DRSC03568	1.40e5	4773	inactive
mus201 + Chrac-14	DRSC03575	1.58e5	5300	inactive
